Laboratory results published in the supplement of paper PMC4604168 (melanoma cell lines).
The list shows a part of the results. Single values are uncertain, as repeats are few or missing.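 The apoptosis fraction was the count of cleaved-PARP antibody-stained nuclei relative to all DNA-stained nuclei, imaged in 1,536-well plates. Screening doses were set so most cells survived, and baseline and induced cleaved-PARP levels vary greatly across cell lines.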

Tests used:
Experiment in all cases: cleaved PARP positive nuclei fraction relative to DMSO control; melanoma cells; higher = more apoptosis
Conditions in all cases: library dose: low library concentration; 72 h
CBRC034 = system: CBRC034 (line from a melanoma biopsy)
COLO792 = system: COLO792
COLO800 = system: COLO800
COLO829 = system: COLO829
G361 = system: G361
IPC-298 = system: IPC-298
IST-MEL1 = system: IST-MEL1
LB2518-MEL = system: LB2518-MEL
LOXIMVI = system: LOXIMVI
MEL-HO = system: MEL-HO
MZ2-MEL = system: MZ2-MEL
MeWo = system: MeWo
RPMI7951 = system: RPMI7951
RVH-421 = system: RVH-421
SkMel28 = system: SkMel28
SkMel2 = system: SkMel2
SkMel30 = system: SkMel30
UACC62 = system: UACC62

Row | SMILES | cleaved PARP positive nuclei fraction (CBRC034) [%] | cleaved PARP positive nuclei fraction (COLO792) [%] | cleaved PARP positive nuclei fraction (COLO800) [%] | cleaved PARP positive nuclei fraction (COLO829) [%] | cleaved PARP positive nuclei fraction (G361) [%] | cleaved PARP positive nuclei fraction (IPC-298) [%] | cleaved PARP positive nuclei fraction (IST-MEL1) [%] | cleaved PARP positive nuclei fraction (LB2518-MEL) [%] | cleaved PARP positive nuclei fraction (LOXIMVI) [%] | cleaved PARP positive nuclei fraction (MEL-HO) [%] | cleaved PARP positive nuclei fraction (MZ2-MEL) [%] | cleaved PARP positive nuclei fraction (MeWo) [%] | cleaved PARP positive nuclei fraction (RPMI7951) [%] | cleaved PARP positive nuclei fraction (RVH-421) [%] | cleaved PARP positive nuclei fraction (SkMel28) [%] | cleaved PARP positive nuclei fraction (SkMel2) [%] | cleaved PARP positive nuclei fraction (SkMel30) [%] | cleaved PARP positive nuclei fraction (UACC62) [%]
1 | Cc1cn(-c2cc(NC(=O)c3ccc(C)c(Nc4nccc(-c5cccnc5)n4)c3)cc(C(F)(F)F)c2)cn1 [nilotinib] + CS(=O)(=O)c1ccc(C(=O)Nc2ccc(Cl)c(-c3ccccn3)c2)c(Cl)c1 [vismodegib] (first compound 0.2 µM, partner dose 1 µM) | 23.1 | 171 | 209 | 65 | 40.9 | 88.8 | 40.4 | 148 | 294 | 35.2 | 92.5 | 38.2 | 53.5 | 214 | 82.8 | 73.6 | 159 | 58.6
2 | O=c1[nH]nc(Sc2ncc([N+](=O)[O-])s2)n1-c1ccc2c(c1)OCCO2 + Cc1ccc(Nc2nccc(N(C)c3ccc4c(C)n(C)nc4c3)n2)cc1S(N)(=O)=O [Pazopanib] (first compound 0.2 µM, partner dose 0.4 µM) | 136 | 93.2 | 163 | 105 | 83.7 | 45.5 | 67.1 | 104 | 273 | 115 | 41.9 | 16.7 | 169 | 34 | 73.3 | 19.2 | 50.4 | 146
3 | CC[C@]1(O)C[C@H]2CN(CCc3c([nH]c4ccccc34)[C@@](C(=O)OC)(c3cc4c(cc3OC)N(C=O)[C@H]3[C@@](O)(C(=O)OC)[C@H](OC(C)=O)[C@]5(CC)C=CCN6CC[C@]43[C@@H]65)C2)C1 [vincristine] + Nc1nc(F)nc2c1ncn2[C@@H]1O[C@H](CO)[C@@H](O)[C@@H]1O [fludarabine] (first compound 0.0001 µM, partner dose 0.2 µM) | 86.5 | 101 | 52.1 | 98.4 | 182 | 44.9 | 158 | 97.8 | 21.5 | 95.1 | 114 | 6340 | 291 | 154 | 125 | 92.6 | 2520 | 561
4 | Cc1cc(Nc2cc(N3CCN(C)CC3)nc(Sc3ccc(NC(=O)C4CC4)cc3)n2)n[nH]1 [Tozasertib] + CS(=O)(=O)CCNCc1ccc(-c2ccc3ncnc(Nc4ccc(OCc5cccc(F)c5)c(Cl)c4)c3c2)o1 [lapatinib] (first compound 0.006 µM, partner dose 0.8 µM) | 82.1 | 69.8 | 187 | 54.3 | 79.6 | 42.1 | 64.6 | 110 | 147 | 41.7 | 51.1 | 114 | 63.3 | 33.1 | 71.2 | 32.7 | 93.8 | 48.4
5 | Cc1cc(Nc2cc(N3CCN(C)CC3)nc(Sc3ccc(NC(=O)C4CC4)cc3)n2)n[nH]1 [Tozasertib] + Nc1ccn([C@@H]2O[C@H](CO)[C@@H](O)C2(F)F)c(=O)n1 [gemcitabine] (first compound 0.006 µM, partner dose 0.0004 µM) | 81.7 | 146 | 240 | 127 | 175 | 47.1 | 265 | 114 | 70.1 | 126 | 153 | 80.2 | 246 | 100 | 57.2 | 126 | 146 | 124
6 | Cc1cc(Nc2cc(N3CCN(C)CC3)nc(Sc3ccc(NC(=O)C4CC4)cc3)n2)n[nH]1 [Tozasertib] + Nc1ncn([C@H]2C[C@H](O)[C@@H](CO)O2)c(=O)n1 [decitabine] (first compound 0.006 µM, partner dose 0.1 µM) | 97.7 | 31.6 | 117 | 167 | 131 | 131 | 94.5 | 62.3 | 69.5 | 58.5 | 92.5 | 319 | 132 | 112 | 88.7 | 126 | 123 | 174
7 | O=C(/C=C/c1cccnc1)NCCCCC1CCN(C(=O)c2ccccc2)CC1 + Cc1ccc(Nc2nccc(N(C)c3ccc4c(C)n(C)nc4c3)n2)cc1S(N)(=O)=O [Pazopanib] (first compound 0.01 µM, partner dose 0.4 µM) | 1380 | 507 | 171 | 158 | 8730 | 243 | 208 | 778 | 156 | 810 | 660 | 81.4 | 139 | 92.7 | 112 | 2600 | 58.5 | 116
8 | COc1cc([C@@H]2c3cc4c(cc3[C@@H](O[C@@H]3O[C@@H]5CO[C@@H](C)O[C@H]5[C@H](O)[C@H]3O)[C@H]3COC(=O)[C@H]23)OCO4)cc(OC)c1O [etoposide] + O=C(O)[C@@H]1[O][Sb](=[O])([O][Sb]2(=[O])[O][C@H]([C@H](O)CO)[C@H](O)[C@H](C(=O)O)[O]2)[O][C@H]([C@H](O)CO)[C@@H]1O [stibogluconate] (first compound 0.02 µM, partner dose 2 µM) | 218 | 64.6 | 83.9 | 130 | 118 | 47.8 | 85.9 | 127 | 123 | 31 | 162 | 95.8 | 108 | 166 | 70.1 | 74.3 | 18 | 59.6
9 | Cc1ccc(Nc2nccc(N(C)c3ccc4c(C)n(C)nc4c3)n2)cc1S(N)(=O)=O [Pazopanib] + CC(=O)O[C@@]12CO[C@@H]1C[C@H](O)[C@@]1(C)C(=O)[C@H](O)C3=C(C)[C@@H](OC(=O)[C@H](O)[C@@H](NC(=O)OC(C)(C)C)c4ccccc4)C[C@@](O)([C@@H](OC(=O)c4ccccc4)[C@H]21)C3(C)C [Docetaxel] (first compound 0.4 µM, partner dose 0.0001 µM) | 63 | 472 | 172 | 171 | 362 | 214 | 95.7 | 243 | 173 | 96.4 | 248 | 423 | 173 | 279 | 136 | 615 | 484 | 417
10 | N#CC[C@H](C1CCCC1)n1cc(-c2ncnc3[nH]ccc23)cn1 [ruxolitinib] + O=c1[nH]nc(Sc2ncc([N+](=O)[O-])s2)n1-c1ccc2c(c1)OCCO2 [BI78D3] (first compound 1 µM, partner dose 0.2 µM) | 110 | 89.4 | 48.2 | 74.8 | 93.6 | 79.7 | 131 | 78.8 | 61 | 184 | 94.5 | 212 | 186 | 85.2 | 81.3 | 109 | 79.5 | 40.7
11 | COc1cc([C@@H]2c3cc4c(cc3[C@@H](O[C@@H]3O[C@@H]5CO[C@@H](C)O[C@H]5[C@H](O)[C@H]3O)[C@H]3COC(=O)[C@H]23)OCO4)cc(OC)c1O [etoposide] + Nc1nc(F)nc2c1ncn2[C@@H]1O[C@H](CO)[C@@H](O)[C@@H]1O [fludarabine] (first compound 0.02 µM, partner dose 0.2 µM) | 29.2 | 129 | 23.9 | 70 | 55.3 | 138 | 400 | 207 | 45 | 60.4 | 98.3 | 398 | 38 | 271 | 179 | 369 | 944 | 122
12 | CCCCCCCCCCCCCCCCCCOP(=O)([O-])OC1CC[N+](C)(C)CC1 [Perifosine] + CC1(C)CCC(c2ccc(Cl)cc2)=C(CN2CCN(c3ccc(C(=O)NS(=O)(=O)c4ccc(N[C@H](CCN5CCOCC5)CSc5ccccc5)c(S(=O)(=O)C(F)(F)F)c4)cc3)CC2)C1 [ABT263] (first compound 0.4 µM, partner dose 0.4 µM) | 130 | 342 | 171 | 62.7 | 108 | 231 | 572 | 87.4 | 197 | 169 | 199 | 597 | 497 | 443 | 82.2 | 119 | 109 | 94.1
13 | Cc1cc(Nc2cc(N3CCN(C)CC3)nc(Sc3ccc(NC(=O)C4CC4)cc3)n2)n[nH]1 [Tozasertib] + Cn1c(Nc2ccc(C(F)(F)F)cc2)nc2cc(Oc3ccnc(-c4ncc(C(F)(F)F)[nH]4)c3)ccc21 [CHIR265] (first compound 0.006 µM, partner dose 0.08 µM) | 290 | 391 | 72.4 | 125 | 521 | 68.5 | 170 | 405 | 52.1 | 189 | 89.5 | 226 | 283 | 105 | 85.6 | 74.7 | 235 | 626
14 | CCCCCCCCCCCCCCCCCCOP(=O)([O-])OC1CC[N+](C)(C)CC1 [Perifosine] + CCN(CC)CCNC(=O)c1c(C)[nH]c(/C=C2\C(=O)Nc3ccc(F)cc32)c1C [sunitinib] (first compound 0.4 µM, partner dose 0.4 µM) | 115 | 109 | 126 | 111 | 43.5 | 43.6 | 86.3 | 191 | 81.1 | 105 | 85.3 | 138 | 137 | 304 | 60.8 | 56.9 | 93.7 | 165
15 | O=C(/C=C/c1cccnc1)NCCCCC1CCN(C(=O)c2ccccc2)CC1 + C[C@]1(c2nc3c(C(N)=O)cccc3[nH]2)CCCN1 [Veliparib] (first compound 0.01 µM, partner dose 1.4 µM) | 725 | 287 | 52.5 | 173 | 4280 | 173 | 176 | 125 | 87 | 156 | 441 | 49.1 | 71 | 390 | 85.4 | 937 | 186 | 203
16 | O=C(Nc1cc(C(F)(F)F)cc(C(F)(F)F)c1)c1cc(Cl)ccc1O + CCCCCCCCCCCCCCCCCCOP(=O)([O-])OC1CC[N+](C)(C)CC1 [Perifosine] (first compound 0.016 µM, partner dose 0.4 µM) | 74.7 | 68.7 | 69.7 | 139 | 79.1 | 29.1 | 133 | 34.4 | 104 | 327 | 101 | 150 | 82.8 | 124 | 74.5 | 71.2 | 127 | 277

Fetched one by one from the entries so far:
Row | SMILES | cleaved PARP positive nuclei fraction (CBRC034) [%] | cleaved PARP positive nuclei fraction (COLO792) [%] | cleaved PARP positive nuclei fraction (COLO800) [%] | cleaved PARP positive nuclei fraction (COLO829) [%] | cleaved PARP positive nuclei fraction (G361) [%] | cleaved PARP positive nuclei fraction (IPC-298) [%] | cleaved PARP positive nuclei fraction (IST-MEL1) [%] | cleaved PARP positive nuclei fraction (LB2518-MEL) [%] | cleaved PARP positive nuclei fraction (LOXIMVI) [%] | cleaved PARP positive nuclei fraction (MEL-HO) [%] | cleaved PARP positive nuclei fraction (MZ2-MEL) [%] | cleaved PARP positive nuclei fraction (MeWo) [%] | cleaved PARP positive nuclei fraction (RPMI7951) [%] | cleaved PARP positive nuclei fraction (RVH-421) [%] | cleaved PARP positive nuclei fraction (SkMel28) [%] | cleaved PARP positive nuclei fraction (SkMel2) [%] | cleaved PARP positive nuclei fraction (SkMel30) [%] | cleaved PARP positive nuclei fraction (UACC62) [%]
15 | O=C(/C=C/c1cccnc1)NCCCCC1CCN(C(=O)c2ccccc2)CC1 + C[C@]1(c2nc3c(C(N)=O)cccc3[nH]2)CCCN1 [Veliparib] (first compound 0.01 µM, partner dose 1.4 µM) | 725 | 287 | 52.5 | 173 | 4280 | 173 | 176 | 125 | 87 | 156 | 441 | 49.1 | 71 | 390 | 85.4 | 937 | 186 | 203
7 | O=C(/C=C/c1cccnc1)NCCCCC1CCN(C(=O)c2ccccc2)CC1 + Cc1ccc(Nc2nccc(N(C)c3ccc4c(C)n(C)nc4c3)n2)cc1S(N)(=O)=O [Pazopanib] (first compound 0.01 µM, partner dose 0.4 µM) | 1380 | 507 | 171 | 158 | 8730 | 243 | 208 | 778 | 156 | 810 | 660 | 81.4 | 139 | 92.7 | 112 | 2600 | 58.5 | 116
